# Laboratory results taken from paper PMC5996148.
# This is one part of the list.
# Columns and labels:
# Assay in all cases: protein microarray (ProtoArray v5.0), streptavidin-Alexa Fluor 647
# Details in all cases: 3'-biotin; 20 mM Tris (pH 7.5), 5 mM MgCl2, 100 mM KCl, 0.1% Tween-20, A/T-rich and random oligonucleotide blockers; temperature not stated; high values mean tight binding
# ARFIP2 (human) = tested on: ARFIP2 (human)
# ARHGAP28 (human) = tested on: ARHGAP28 (human)
# ARID3B (human) = tested on: ARID3B (human)
# ARL1 (human) = tested on: ARL1 (human)
# ARL3 (human) = tested on: ARL3 (human)
# ARL5A (human) = tested on: ARL5A (human)
# ARL6IP2 (human) = tested on: ARL6IP2 (human)
# ARL8B (human) = tested on: ARL8B (human)
# ARMC7 (human) = tested on: ARMC7 (human)
# ASB11 (human) = tested on: ASB11 (human)
sequence,measurement,setting,value
GGGGACAGGGGTATGGGGAGGGG [G4-3 biotinylated (CtG)],binding signal,ARFIP2 (human),-0.342 z-score
same,binding signal,ARHGAP28 (human),-0.301 z-score
same,binding signal,ARID3B (human),-0.336 z-score
same,binding signal,ARL1 (human),-0.315 z-score
same,binding signal,ARL3 (human),-0.321 z-score
same,binding signal,ARL5A (human),-0.331 z-score
same,binding signal,ARL6IP2 (human),-0.319 z-score
same,binding signal,ARL8B (human),-0.331 z-score
same,binding signal,ARMC7 (human),-0.288 z-score
same,binding signal,ASB11 (human),-0.332 z-score
